# Measurements taken from PubChem BioAssay AID1671190 (National Center for Advancing Translational Sciences (NCATS), 2021).
# The chains behind the UniProt entries cited, without tags or fusion partners.
# UniProt P18054, whole entry, looked up: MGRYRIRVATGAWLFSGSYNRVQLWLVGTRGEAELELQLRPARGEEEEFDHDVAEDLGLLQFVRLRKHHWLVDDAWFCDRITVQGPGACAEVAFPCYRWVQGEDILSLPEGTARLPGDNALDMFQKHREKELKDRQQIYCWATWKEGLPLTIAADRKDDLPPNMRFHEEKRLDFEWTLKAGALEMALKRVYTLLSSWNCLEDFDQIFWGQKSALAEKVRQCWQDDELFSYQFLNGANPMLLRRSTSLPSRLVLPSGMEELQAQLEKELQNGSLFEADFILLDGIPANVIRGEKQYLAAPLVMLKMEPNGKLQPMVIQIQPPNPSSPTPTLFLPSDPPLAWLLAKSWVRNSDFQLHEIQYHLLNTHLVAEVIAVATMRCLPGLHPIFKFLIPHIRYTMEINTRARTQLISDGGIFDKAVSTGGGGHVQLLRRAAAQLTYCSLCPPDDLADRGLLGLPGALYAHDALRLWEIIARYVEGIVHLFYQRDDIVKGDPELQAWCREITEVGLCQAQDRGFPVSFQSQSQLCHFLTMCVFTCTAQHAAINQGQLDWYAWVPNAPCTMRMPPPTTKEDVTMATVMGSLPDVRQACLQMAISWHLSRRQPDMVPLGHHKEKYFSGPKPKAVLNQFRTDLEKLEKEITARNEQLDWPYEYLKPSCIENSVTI
# Out of some 580,000 compounds screened, about 6,100 (1.1%) were called active. Inconclusive results, whose numbers are uncertain, are shown with a selection of clear calls. Calls follow the shape of the dose curve; as a rule, active = well fitted inhibition curve with a large enough effect; inconclusive = small, poorly fitted or top-dose-only effect, or another doubt; inactive = no such curve, though single readings can be large or run the other way. Where the call is inconclusive, the potency comes from a doubtful curve fit.
# Target: Polyunsaturated fatty acid lipoxygenase ALOX12 (Homo sapiens) (UniProt P18054)
# Test: Primary qHTS assay for inhibitors of human arachidonate 12S-lipoxygenase (ALOX12): Round 2
# Conditions: purified 12hLO, xylenol orange hydroperoxide absorbance; activity change, negative = inhibition: at 108 µM (top of the series) unless noted
# Summary of the method: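 Hydroperoxide product was detected by ferrous iron/xylenol orange as the 573 to 405 nm absorbance ratio. Arachidonic acid at 40 uM (final) was turned over for 30 min at room temperature by 150 nM human 12hLO, pH 7.0 Hepes buffer, after 15 min compound preincubation.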
# % is scaled to controls: 0 for no effect and ±100 for the full control effect; potency is read from the fitted curve at half-maximal effect.
Structure (SMILES),Potency,"activity change, negative = inhibition"
Cc1cc(S(=O)(=O)N(Cc2ccncc2)C2CC2)ccc1Br,"inconclusive: 7.94 µM [inhibitor, full curve, poor fit]",–
O=C(c1cn(-c2ccccc2)nc1-c1cccnc1)N1CCN(c2ccc(O)cc2)CC1,"inconclusive: 3.98 µM [inhibitor, full curve, poor fit]",–
CN(c1ccccc1)c1cc(=O)c2ccnc(Nc3cccc([S+](C)(=O)[O-])c3)c2o1,active: 56.2 µM,–
CC(SCc1ccc(Br)cc1)C(=O)O (stereo not given),"inconclusive: 1 µM [inhibitor, full curve]",–
CN(C)C(=O)N1CCC2(CC1)CN(C(=O)CCC(=O)O)Cc1ccccc1O2,"inconclusive: 4.47 µM [inhibitor, full curve, poor fit]",–
CC(C)=CC(=O)Nc1sccc1C#N,–,inactive: -46.4%
CSc1nnc(-c2ccncc2)n1CCCN1CCCC1=O,active: 15.8 µM,–
CCCOc1cc(C)c(S(=O)(=O)n2ccc(C)n2)cc1C,"inconclusive: 17.8 µM [inhibitor, full curve, poor fit]",–
O=C(Nc1nnc(SCC(=O)N2CCOCC2)s1)C1CC(=O)N(c2ccc(F)cc2)C1 (stereo not given),"inconclusive: 44.7 µM [inhibitor, partial curve, poor fit]",–
Cc1onc(NC(=O)NC(=O)c2c(Cl)cccc2Cl)c1Br,"inconclusive: 44.7 µM [inhibitor, partial curve, poor fit]",–
Cc1ccccc1NC1C2CC3CC(C2)CC1C3 (stereo not given),"inconclusive: 6.31 µM [inhibitor, full curve]",–
Cc1ncccc1C(=O)N1CCC2(CC1)CC(N(Cc1ccc(F)cc1)C1CC1)CCO2 (stereo not given),"inconclusive: 17.8 µM [inhibitor, single point]",–
Cc1ccccc1CN1C(=O)c2ccccc2S(=O)c2ccc(C(=O)NCc3ccccc3)cc21 (stereo not given),"inconclusive: 112 µM [inhibitor, partial curve, poor fit]",–
O=C(Nc1c2c(nn1-c1ccccc1)CS(=O)(=O)C2)c1cc2ccccc2o1,"inconclusive: 39.8 µM [inhibitor, partial curve, poor fit]",–
CCOC(=O)Cn1c2[n+](c3ccccc31)CC(O)CS2 (stereo not given),"inconclusive: 15.8 µM [inhibitor, partial curve, poor fit]",–
O=C(CSc1cccc[n+]1[O-])Nc1c(Br)cc([N+](=O)[O-])cc1Br,–,inactive: -15.5%
COc1cc(F)cc(-c2ncc3c(n2)OCCN(Cc2ccc(F)cc2F)C3=O)c1,"inconclusive: 2.51 µM [inhibitor, full curve, poor fit]",–
OCC1(Cc2cccc(Cl)c2)CCCN(Cc2ccc3cc(F)ccc3n2)C1 (stereo not given),"inconclusive: 44.7 µM [inhibitor, partial curve]",–
CCn1nnnc1SCCS(=O)(=O)c1cc(Cl)ccc1Cl,"inconclusive: 39.8 µM [inhibitor, partial curve, poor fit]",–
Cc1ccc2c(c1)cc(C(=O)N1CCc3ccccc3C1)n2C,"inconclusive: 2.82 µM [inhibitor, full curve, poor fit]",–
O=C(NCCC12CC3CC(CC(C3)C1)C2)c1ccccc1Cl,"inconclusive: 39.8 µM [inhibitor, partial curve, poor fit]",–
COc1ccccc1N1CCN(C(c2ccccn2)c2nnnn2C2CCCCC2)CC1 (stereo not given),"inconclusive: 28.2 µM [inhibitor, single point]",–

Structure (SMILES),Potency,"activity change, negative = inhibition"
COc1ccc(C(=O)/C=C2/C(=O)Nc3ccccc32)c(OC)c1,"inconclusive: 20 µM [inhibitor, partial curve, poor fit]",–
Cc1ccc(/C=C/C(=O)OC(C)C(=O)c2ccc(C)c(C)c2)o1 (stereo not given),active: 6.31 µM,–
COc1ccc(Cn2cc(CN3CC(N4CCN(CCN(C)C)CC4)CS3(=O)=O)nn2)cc1 (stereo not given),"inconclusive: 11.2 µM [inhibitor, full curve]",–
COc1cccc(N(C(=O)Cn2nnc(-c3ccc(C)o3)n2)C(C(=O)NC(C)(C)C)c2cccs2)c1 (stereo not given),–,inactive: 10.2%
CCOc1ccc(C(c2c(NC(=O)c3ccccc3)sc(C)c2C)N2CCN(CCO)CC2)cc1 (stereo not given),"inconclusive: 89.1 µM [inhibitor, partial curve, poor fit]",–
C=CCOC(=O)C1=C(C)OC(N)=C(C#N)C1c1ccc(F)cc1 (stereo not given),"inconclusive: 28.2 µM [inhibitor, partial curve, poor fit]",–
CN1CCC2(CC1)CN(C(=O)Cc1cccs1)Cc1ccccc1O2,–,inactive: 7.79%
CCC(=O)O[C@]1(C(=O)SCF)[C@H](C)C[C@H]2[C@@H]3C[C@H](F)C4=CC(=O)C=C[C@]4(C)[C@@]3(F)[C@@H](O)C[C@@]21C,"inconclusive: 19.3 µM [inhibitor, partial curve, poor fit]",–
Cc1ccc(NC(=O)C2CCN(S(=O)(=O)c3cccs3)CC2)cc1,inactive,–
Cc1ccccc1-n1nnnc1Sc1nnnn1-c1ccccc1,–,inactive: -17.8%
Cc1ccc(OCCCCCCN2CCNCC2)cc1,"inconclusive: 100 µM [inhibitor, partial curve, poor fit]",–
CC(=O)Nc1ccc2oc(-c3cncc(Br)c3)nc2c1,"inconclusive: 2.51 µM [inhibitor, full curve, poor fit]",–
COc1ccccc1C(=O)N1CCC(N2CCN(c3ccccc3)CC2)CC1,"inconclusive: 0.141 µM [inhibitor, full curve, poor fit]",–
O=S(Cc1ccc(Cl)cc1)Cc1cccc(Cl)c1 (stereo not given),"inconclusive: 17.8 µM [inhibitor, full curve]",–
COc1ccccc1NC(=O)Cn1nc(N2CCN(c3cccc(Cl)c3)CC2)ccc1=O,–,inactive: 32.6%
Cc1ccc2oc3c(c(=O)c2c1)C(c1cccc(O)c1)N(CCCN1CCOCC1)C3=O (stereo not given),–,inactive: -17.2%
O=C(NCc1ccc(Cl)cc1Cl)C1CCN(S(=O)(=O)c2ccc3c(c2)OCCCO3)CC1,–,inactive: -15.3%
COc1cccc(NC(=O)COC(=O)Cc2ccc(Br)cc2)c1,"inconclusive: 89.1 µM [inhibitor, single point]",–
COc1cc(C(F)(F)F)nc2ccc(C#CCOC(=O)Nc3ccccc3)cc12,"inconclusive: 39.8 µM [inhibitor, single point]",–
Cc1ccc(S(=O)(=O)Nc2ccc(=O)n(Cc3ccc(Cl)c(Cl)c3)c2)cc1,"inconclusive: 39.8 µM [inhibitor, partial curve, poor fit]",–
Nc1[nH]c(=O)ncc1F,"inconclusive: 38.5 µM [inhibitor, partial curve, poor fit]",–
CCC1(C)Cc2c(sc3[nH]c(=O)[nH]c(=O)c23)CS1 (stereo not given),"inconclusive: 44.7 µM [inhibitor, partial curve, poor fit]",–

# Full records from above.
# `CCC(=O)O[C@]1(C(=O)SCF)[C@H](C)C[C@H]2[C@@H]3C[C@H](F)C4=CC(=O)C=C[C@]4(C)[C@@]3(F)[C@@H](O)C[C@@]21C` in the list: Potency: inconclusive: 19.3 µM [inhibitor, partial curve, poor fit]
# `O=S(Cc1ccc(Cl)cc1)Cc1cccc(Cl)c1` (stereo not given) in the list: Potency: inconclusive: 17.8 µM [inhibitor, full curve]
# `Cc1ccc2oc3c(c(=O)c2c1)C(c1cccc(O)c1)N(CCCN1CCOCC1)C3=O` (stereo not given) in the list: activity change, negative = inhibition: inactive: -17.2%
# `CC(=O)Nc1ccc2oc(-c3cncc(Br)c3)nc2c1` in the list: Potency: inconclusive: 2.51 µM [inhibitor, full curve, poor fit]

# The results go on:

Structure (SMILES),Potency,"activity change, negative = inhibition"
Cc1ccc(CNC(=O)N2CCCCCCNC(=O)[C@@H]3CCCC[C@@H]32)cc1,–,inactive: -7.29%
Cc1ccc2sc(N(CCCN(C)C)C(=O)c3ccc(S(=O)(=O)N(C)Cc4ccccc4)cc3)nc2c1C,active: 28.2 µM,–
O=S(=O)(c1ccc(NC(=S)N/N=C/c2cccc(Oc3ccccc3)c2)cc1)N1CCOCC1,"inconclusive: 35.5 µM [inhibitor, partial curve]",–
CC(C)(C)OC(=O)N1CC(O)CC1C(=O)OCC(=O)c1ccc(Cl)cc1 (stereo not given),"inconclusive: 50.1 µM [inhibitor, partial curve]",–
O=c1cc(N2CCC(Cc3ccccc3)CC2)[nH]c(=O)n1C1CCCCC1,–,inactive: 0%
CC(=O)OCC(=O)C1CCC2C3CC=C4CC(O)CCC4(C)C3CCC12C (stereo not given),–,inactive: -4.28%
Brc1ccc(-c2nc(-c3ccccc3)no2)cc1,–,inactive: 2.93%
COc1ccc(OC)c([S+](=O)([O-])c2nnn3c2nc(N2CCCCC2)c2ccccc23)c1,"inconclusive: 63.1 µM [inhibitor, partial curve, poor fit]",–
COc1ccc(C(=O)N2CCN(Cc3cc(OC)ccc3OC)CC2)cc1,"inconclusive: 0.562 µM [inhibitor, full curve]",–
O=C(Nc1ccccc1C(F)(F)F)c1cc(S(=O)(=O)N2CCOCC2)ccc1F,"inconclusive: 0.631 µM [inhibitor, full curve, poor fit]",–
CCCCc1nnc(NC(=O)CSCc2cc(=O)n3ccsc3n2)s1,"inconclusive: 50.1 µM [inhibitor, partial curve, poor fit]",–
Cc1ccc(Cl)cc1NC(=O)COC(=O)CSc1ccccc1,"inconclusive: 79.4 µM [inhibitor, partial curve, poor fit]",–
Cc1ccc(NC2=NCCC2)cc1Cl,–,inactive: -1.37%
Cc1ccc(C)c(N(C(=O)CNC(=O)c2ccco2)C(C(=O)NCC2CCCO2)c2ccccc2)c1 (stereo not given),–,inactive: 14.4%
COc1ccc(-c2nnc(NC(=O)c3cc(Cl)ccc3Cl)o2)cc1,"inconclusive: 7.94 µM [inhibitor, full curve, poor fit]",–
O=C(NCc1ccncc1)[C@@H]1CCCN1C(=O)[C@H]1CCCN1,"inconclusive: 25.1 µM [inhibitor, single point]",–
Cc1cccc(S(=O)(=O)Nc2ccc(C)c3c2OC(C)(C)C3)c1,"inconclusive: 112 µM [inhibitor, single point]",–
O=C(/C=C/[C@H]1O[C@@H](n2ccc(=O)[nH]c2=O)[C@H](O)[C@@H]1O)NCCc1cccs1,"inconclusive: 112 µM [inhibitor, single point]",–
COc1cc(C(=O)Nc2ccc(N(C)C)cc2)cc(OC)c1OC,–,inactive: -36.1%
CC(=O)N1Cc2cc(C(=O)NCC(F)(F)F)nc(-c3cccc(-c4cc5ccccc5o4)c3)c2[C@@H]1CCO,"inconclusive: 35.5 µM [inhibitor, partial curve, poor fit]",–
CCC(=O)N1Cc2ccccc2CC2(CCCCN2CC)C1 (stereo not given),–,inactive: 56.5% [at 176 µM]
